# From the supplement of paper PMC6331611
# ± gives the standard deviation of the averaged measurements. Over roughly 1,600 compounds, “normalized growth (OD600, IQM-normalized) in LPM” has its median near 1; the lowest 2% begin near 0.014. This is one part of the list.
# Test system: Salmonella enterica serovar Typhimurium SL1344
# Assay: normalized growth (OD600, IQM-normalized) in LPM (fraction of plate interquartile mean); higher = more bacterial growth (less inhibition)
# Conditions: LPM pH 5.8; 10 µM; 16 h
row,SMILES,normalized growth
1,Cc1nc(Nc2ncc(C(=O)Nc3c(C)cccc3Cl)s2)cc(N2CCN(CCO)CC2)n1,1.11 ± 0.17
2,CCN(CCO)CCCC(C)Nc1ccnc2cc(Cl)ccc12 (configuration not stated),0.947 ± 0.068
3,CN(C)c1ccc(C(=C2C=CC(=[N+](C)C)C=C2)c2ccc(N(C)C)cc2)cc1,0.992 ± 0.034
4,CC(=O)[C@H]1CC[C@H]2[C@@H]3CC=C4C[C@@H](O)CC[C@]4(C)[C@H]3CC[C@]12C,0.938 ± 0.086
5,COc1ccc(CC2c3cc(OC)c(OC)cc3CC[N+]2(C)CCC(=O)OCCCCCOC(=O)CC[N+]2(C)CCc3cc(OC)c(OC)cc3C2Cc2ccc(OC)c(OC)c2)cc1OC (configuration not stated),0.986 ± 0.015
6,Cc1nc(-c2ccc(OCC(C)C)c(C#N)c2)sc1C(=O)O,1.02 ± 0.038
7,CC(COc1ccccc1)NC(C)C(O)c1ccc(O)cc1 (configuration not stated),1 ± 0.016
8,CC(C)(C)c1ccc(C(O)CCCN2CCC(C(O)(c3ccccc3)c3ccccc3)CC2)cc1 (configuration not stated),0.8844 ± 0.0053
9,CCOC(=O)NNc1nncc2ccccc12,1.15 ± 0.049
10,CO/N=C1\C[C@]2(C[C@@H]3C[C@@H](C/C=C(\C)C[C@@H](C)/C=C/C=C4\CO[C@@H]5[C@H](O)C(C)=C[C@@H](C(=O)O3)[C@]45O)O2)O[C@H](/C(C)=C/C(C)C)[C@H]1C,0.91 ± 0.038
11,CCCCN1CCCCC1C(=O)Nc1c(C)cccc1C (configuration not stated),1.05 ± 0.033
12,COc1ccnc(C[S+]([O-])c2nc3cc(OC(F)F)ccc3[nH]2)c1OC (configuration not stated),0.889 ± 0.0098
13,Nc1ccn([C@@H]2O[C@H](CO)[C@@H](O)[C@@H]2O)c(=O)n1,1.01 ± 0.067
14,O=c1[nH]c(=O)c2ccccc2o1,0.902 ± 0.03
15,Nc1ccc(S(=O)(=O)Nc2ccccn2)cc1,0.992 ± 0.025
16,CO[C@H]1C[C@H](O[C@H]2[C@H](C)[C@@H](O[C@@H]3O[C@H](C)C[C@H](N(C)C)[C@H]3O)[C@@H](C)C[C@@]3(CO3)C(=O)[C@H](C)[C@@H](O)[C@@H](C)[C@@H](C)OC(=O)[C@@H]2C)O[C@@H](C)[C@@H]1O,0.94 ± 0.074
17,CN(C)CCCN1c2ccccc2Sc2ccc(Cl)cc21,1.06 ± 0.15
18,O=c1ccc2ccccc2o1,0.926 ± 0.037
19,COc1cc([C@@H]2c3cc4c(cc3[C@@H](O[C@@H]3O[C@@H]5CO[C@@H](c6cccs6)O[C@H]5[C@H](O)[C@H]3O)[C@H]3COC(=O)[C@H]23)OCO4)cc(OC)c1O,0.882 ± 0.027
20,O=c1[nH]cnc2c1ncn2[C@@H]1O[C@H](CO)[C@@H](O)[C@H]1O,1.13 ± 0.034
21,N[C@@H](Cc1ccc(O)cc1)C(=O)O,0.979 ± 0.02
22,O=C(COc1ccc(Cl)cc1)N1CCN(Cc2ccc3c(c2)OCO3)CC1,0.928 ± 0.019
23,CCN(CC)CCNc1ccc(CO)c2sc3ccccc3c(=O)c12,0.916 ± 0.067
24,CCOc1ccc2nc3cc(N)ccc3c(N)c2c1,0.799 ± 0.086
25,Nc1nc(NC2CC2)c2ncn([C@H]3C=C[C@@H](CO)C3)c2n1,0.9084 ± 0.0021

row,SMILES,normalized growth
1,CN(C)c1ccc(O)c2c1C[C@H]1C[C@H]3[C@H](N(C)C)C(O)=C(C(N)=O)C(=O)[C@@]3(O)C(O)=C1C2=O,0.0111 ± 0.00049
2,CCCCCCCCCCCCCCCCOP(=O)([O-])OCC[N+](C)(C)C,0.911 ± 0.023
3,Cc1ccsc1/C=C/C1=NCCCN1C,1.096 ± 0.0076
4,Cc1ccc(S(=O)(=O)NC(=O)NN2CCCCCC2)cc1,0.949 ± 0.02
5,COc1cccc(OC)c1C(=O)N[C@@H]1C(=O)N2[C@@H]1SC(C)(C)[C@@H]2C(=O)O,1.12 ± 0.019
6,C[C@]12CC[C@@H]3c4ccc(OS(=O)(=O)O)cc4CC[C@H]3[C@@H]1CCC2=O,1.06 ± 0.065
7,CCN(CC)CCOC(=O)C(c1ccccc1)c1ccccc1,1.12 ± 0.041
8,CCOC(=O)c1ccc(N)cc1,0.96 ± 0.015
9,CC(C)(C)CC(C)(C)c1ccc(O)c(Cc2ccc(Cl)cc2Cl)c1,0.861 ± 0.066
10,COc1cc(NC(C)CCCN)c2ncccc2c1 (configuration not stated),0.937 ± 0.025
11,CCCCC1(COC(=O)CCC(=O)O)C(=O)N(c2ccccc2)N(c2ccccc2)C1=O,1.04 ± 0.39
12,CN(C)[C@@H]1C(O)=C(C(N)=O)C(=O)[C@@]2(O)C(O)=C3C(=O)c4c(O)cccc4[C@@](C)(O)[C@H]3[C@H](O)[C@@H]12,0.0138 ± 0.00025
13,NC(N)=Nc1nc(CSCC/C(N)=N/S(N)(=O)=O)cs1,1.13 ± 0.025
14,Cc1cc(-c2ccccc2)nnc1NCCN1CCOCC1,0.921 ± 0.13
15,CSc1ccc2c(c1)N(CCC1CCCCN1C)c1ccccc1S2 (configuration not stated),1.17 ± 0.051
16,CC1=C(/C=C/C(C)=C/C=C/C(C)=C\C(=O)O)C(C)(C)CCC1,0.957 ± 0.099
17,CC/C(=C(/CC)c1ccc(O)cc1)c1ccc(O)cc1,0.988 ± 0.036
18,Cl.N=C(N)NCCC[C@H](N)C(=O)O,1 ± 0.042
19,C=CCOC(Cn1ccnc1)c1ccc(Cl)cc1Cl (configuration not stated),1.11 ± 0.033
20,CC1(C)[C@@H](OC(=O)CCC(=O)O)CC[C@]2(C)[C@H]3C(=O)C=C4[C@@H]5C[C@@](C)(C(=O)O)CC[C@]5(C)CC[C@@]4(C)[C@]3(C)CC[C@@H]12,0.84 ± 0.068
21,CC(CN(C)C)CN1c2ccccc2Sc2ccccc21 (configuration not stated),0.862 ± 0.044
22,C#C[C@]1(O)CC[C@H]2[C@@H]3CCC4=CC(=O)CC[C@@H]4[C@H]3CC[C@@]21CC,1.16 ± 0.084
23,CC(C)CCCC(C)NC(C)C (configuration not stated),0.993 ± 0.022
24,N=C(N)NCCN1CCCCCCC1,1.02 ± 0.033
25,CC(=O)OCC(=O)[C@H]1CC[C@H]2[C@@H]3CCC4=CC(=O)CC[C@]4(C)[C@H]3CC[C@]12C,0.853 ± 0.017

row,SMILES,normalized growth
1,CCCOc1ccc(C(=O)OCCN(CC)CC)cc1N,0.995 ± 0.046
2,CCN(CC)CCOCCOC(=O)C(CC)(CC)c1ccccc1,1.08 ± 0.015
3,CC(=O)OCC(=O)[C@@]1(OC(C)=O)[C@@H](C)C[C@H]2[C@@H]3C[C@H](F)C4=CC(=O)C=C[C@]4(C)[C@@]3(F)[C@@H](O)C[C@@]21C,1.01 ± 0.034
4,CC[C@@H](CO)NCCN[C@@H](CC)CO,1.2 ± 0.13
5,C[C@]1(Cn2ccnn2)[C@H](C(=O)O)N2C(=O)C[C@H]2S1(=O)=O,1.2 ± 0.038
6,Cc1cc(-c2ccc(/N=N/c3ccc4c(S(=O)(=O)O)cc(S(=O)(=O)O)c(N)c4c3O)c(C)c2)ccc1/N=N/c1ccc2c(S(=O)(=O)O)cc(S(=O)(=O)O)c(N)c2c1O,1.62 ± 0.034
7,CNC(=N)NCCC[C@H](N)C(=O)O,1 ± 0.1
8,C=CCSCC1Nc2cc(Cl)c(S(N)(=O)=O)cc2S(=O)(=O)N1 (configuration not stated),0.98 ± 0.015
9,CC(=O)N(CC(O)CN(C(C)=O)c1c(I)c(C(=O)NCC(O)CO)c(I)c(C(=O)NCC(O)CO)c1I)c1c(I)c(C(=O)NCC(O)CO)c(I)c(C(=O)NCC(O)CO)c1I (configuration not stated),1.05 ± 0.02
10,NC(=O)NS(=O)(=O)c1ccc(N)cc1,0.991 ± 0.017
11,COc1cc(/C=C/C(=O)N2CCCCCCC2)cc(OC)c1OC,0.961 ± 0.025
12,c1ccc(CN(CC2=NCCN2)c2ccccc2)cc1,1.01 ± 0.045
13,OCc1ccccc1O,1.05 ± 0.04
14,COc1c(N2CCNC(C)C2)c(F)cc2c(=O)c(C(=O)O)cn(C3CC3)c12 (configuration not stated),0.0158 ± 0.0074
15,O=C(c1ccccc1)c1ccc2n1CCC2C(=O)O (configuration not stated),0.952 ± 0.076
16,CN(C)CC(c1ccc(O)cc1)C1(O)CCCCC1 (configuration not stated),1.71 ± 0.17
17,NC(=O)[C@@H]1CCCN1C(=O)[C@H](Cc1c[nH]cn1)NC(=O)[C@@H]1CCC(=O)N1,0.999 ± 0.024
18,CC(=O)Oc1cccc(C)c1 [meta-CRESYL ACETATE],0.995 ± 0.048
19,CC(C)(O)c1ccccc1CC[C@@H](SCC1(CC(=O)O)CC1)c1cccc(/C=C/c2ccc3ccc(Cl)cc3n2)c1,1 ± 0.023
20,CCN[C@@H]1C[C@H](N)[C@@H](O[C@H]2OC(CN)=CC[C@H]2N)[C@H](O)[C@H]1O[C@H]1OC[C@](C)(O)[C@H](NC)[C@H]1O,1.07 ± 0.056
21,FC(F)(F)COCC(F)(F)F,1.08 ± 0.036
22,CN1Cc2c(N)cccc2C(c2ccccc2)C1 (configuration not stated),1.01 ± 0.044
23,Nc1ccn([C@@H]2CS[C@H](CO)O2)c(=O)n1,1.18 ± 0.095
24,Cc1cc(N)c2ccccc2[n+]1CCCCCCCCCC[n+]1c(C)cc(N)c2ccccc21,1.07 ± 0.017
25,COc1ccccc1OCC(O)COC(N)=O (configuration not stated),1.09 ± 0.097

# Reprinted from the entries so far, 18 compounds:
row,SMILES,normalized growth
7,CNC(=N)NCCC[C@H](N)C(=O)O,1 ± 0.1
8,C=CCSCC1Nc2cc(Cl)c(S(N)(=O)=O)cc2S(=O)(=O)N1 (configuration not stated),0.98 ± 0.015
9,CC(=O)N(CC(O)CN(C(C)=O)c1c(I)c(C(=O)NCC(O)CO)c(I)c(C(=O)NCC(O)CO)c1I)c1c(I)c(C(=O)NCC(O)CO)c(I)c(C(=O)NCC(O)CO)c1I (configuration not stated),1.05 ± 0.02
10,NC(=O)NS(=O)(=O)c1ccc(N)cc1,0.991 ± 0.017
11,COc1cc(/C=C/C(=O)N2CCCCCCC2)cc(OC)c1OC,0.961 ± 0.025
12,c1ccc(CN(CC2=NCCN2)c2ccccc2)cc1,1.01 ± 0.045
13,OCc1ccccc1O,1.05 ± 0.04
14,COc1c(N2CCNC(C)C2)c(F)cc2c(=O)c(C(=O)O)cn(C3CC3)c12 (configuration not stated),0.0158 ± 0.0074
15,O=C(c1ccccc1)c1ccc2n1CCC2C(=O)O (configuration not stated),0.952 ± 0.076
16,CN(C)CC(c1ccc(O)cc1)C1(O)CCCCC1 (configuration not stated),1.71 ± 0.17
17,NC(=O)[C@@H]1CCCN1C(=O)[C@H](Cc1c[nH]cn1)NC(=O)[C@@H]1CCC(=O)N1,0.999 ± 0.024
18,CC(=O)Oc1cccc(C)c1 [meta-CRESYL ACETATE],0.995 ± 0.048
19,CC(C)(O)c1ccccc1CC[C@@H](SCC1(CC(=O)O)CC1)c1cccc(/C=C/c2ccc3ccc(Cl)cc3n2)c1,1 ± 0.023
20,CCN[C@@H]1C[C@H](N)[C@@H](O[C@H]2OC(CN)=CC[C@H]2N)[C@H](O)[C@H]1O[C@H]1OC[C@](C)(O)[C@H](NC)[C@H]1O,1.07 ± 0.056
21,FC(F)(F)COCC(F)(F)F,1.08 ± 0.036
22,CN1Cc2c(N)cccc2C(c2ccccc2)C1 (configuration not stated),1.01 ± 0.044
23,Nc1ccn([C@@H]2CS[C@H](CO)O2)c(=O)n1,1.18 ± 0.095
24,Cc1cc(N)c2ccccc2[n+]1CCCCCCCCCC[n+]1c(C)cc(N)c2ccccc21,1.07 ± 0.017

# Additional entries

row,SMILES,normalized growth
1,COC(=O)Nc1nc2cc([S+]([O-])c3ccccc3)ccc2[nH]1 (configuration not stated),1.09 ± 0.022
2,CCNC(=O)/C=C/c1cccc(Br)c1,1.08 ± 0.035
3,C=CCCCCCCCCC(=O)[O-].C=CCCCCCCCCC(=O)[O-].[Zn+2],1.15 ± 0.041
4,CO/N=C(\C(=O)N[C@@H]1C(=O)N2C(C(=O)OC(C)OC(C)=O)=C(COC(N)=O)CS[C@H]12)c1ccco1 (some centres not stated),1.06 ± 0.24
5,NCCC[C@H](N)CC(=O)N[C@H]1CNC(=O)[C@H]([C@H]2C[C@H](O)NC(N)=N2)NC(=O)/C(=C/NC(N)=O)NC(=O)[C@H](CO)NC(=O)[C@H](CO)NC1=O,0.97 ± 0.066
6,NC(CO)C(=O)NNCc1ccc(O)c(O)c1O (configuration not stated),0.816 ± 0.029
7,C[C@H]1COc2c(N3CCN(C)CC3)c(F)cc3c(=O)c(C(=O)O)cn1c23,0.00833 ± 0.00037
8,CN(C)CCCN1c2ccccc2CCc2ccccc21,0.963 ± 0.051
9,Fc1ccc([C@@H]2CCNC[C@H]2COc2ccc3c(c2)OCO3)cc1,0.869 ± 0.11
10,Nc1nc(O)c2ncn(CCC(CO)CO)c2n1,0.9465 ± 0.0074
11,CN(C/C=C/C#CC(C)(C)C)Cc1cccc2ccccc12,0.91 ± 0.018
12,C[N+](C)(C)CCO.[Cl-],1.12 ± 0.027
13,O=C(Oc1cccc2cccnc12)c1ccccc1,0.993 ± 0.039
14,CN1CCC(OC(c2ccccc2)c2ccccc2)CC1,0.994 ± 0.067
15,Cc1cc2nc3c(=O)[nH]c(=O)nc-3n(CC(O)C(O)C(O)COP(=O)(O)O)c2cc1C (configuration not stated),0.822 ± 0.056
16,O=C(O)CSCC(=O)NC1CCSC1=O (configuration not stated),1 ± 0.069
17,NCC[C@H](O)C(=O)N[C@@H]1C[C@H](N)[C@@H](O[C@H]2O[C@H](CN)[C@@H](O)[C@H](O)[C@H]2O)[C@H](O)[C@H]1O[C@H]1O[C@H](CO)[C@@H](O)[C@H](N)[C@H]1O,0.966 ± 0.015
18,CC(C)C(=O)Nc1ccc([N+](=O)[O-])c(C(F)(F)F)c1,1.11 ± 0.082
19,CC(=O)Oc1cc2c(s1)CCN(C(C(=O)C1CC1)c1ccccc1F)C2 (configuration not stated),1.08 ± 0.1
20,Cn1cnc([N+](=O)[O-])c1Sc1ncnc2[nH]cnc12,0.987 ± 0.026
21,OCCN1C[C@H](O)[C@@H](O)[C@H](O)[C@H]1CO,0.993 ± 0.016
22,CC(=O)OCC[N+](C)(C)C,1.05 ± 0.023
